Here are results for one substance from patent US20160009772A1, “CELL PENETRATING PEPTIDES WHICH BIND IRF5” (priority 2012, published 2016).

Amino acid sequences for entries named in this document (tags omitted). A change or cut given only in a name is not applied to a line headed by its entry. Chains listed by the source or under a name are the forms on record and can include a tag or linker.
IRF5(222-467, S430D), S430D phosphomimetic construct of IRF5 (222-467) (Q13568, form named): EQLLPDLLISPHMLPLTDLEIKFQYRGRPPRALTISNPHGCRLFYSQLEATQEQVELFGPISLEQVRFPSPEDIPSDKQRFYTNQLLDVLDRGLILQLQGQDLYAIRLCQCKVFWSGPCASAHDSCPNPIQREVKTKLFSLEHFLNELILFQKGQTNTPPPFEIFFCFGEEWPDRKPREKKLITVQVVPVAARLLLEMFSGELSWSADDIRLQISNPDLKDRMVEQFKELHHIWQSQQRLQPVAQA

The experiment addresses IRF5(222-467, S430D), S430D phosphomimetic construct of IRF5 (222-467) (human) (UniProt Q13568). Kind of experiment: TR-FRET dimer assay, 200 nM biotin tag IRF5 with increasing His tag IRF5 (FIG. 1B); Kd not given.

These are yes or no findings as the source states them, for the method shown. Some results given as binding are weak or reduced against the parent protein; the word gives no strength.

With “IRF5(222-467, S430D), S430D phosphomimetic construct of IRF5 (222-467) (from UniProt Q13568 222-467)”, the binding result is reported as “binds”.
